PubChem BioAssay AID1508587 | Peter MacCallum Cancer Centre | 2020
Screen: 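Retest of knockdowns boosting BRAF inhibitor action on lactate release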 (follow-up of hits). Cells: human WM266.4 melanoma cells with a BRAF V600 mutation. Knock-down reagent: single siRNA against human genes, 25 nM. Timing: 96 h. Conditions: vemurafenib 300 nM (about IC25), given 48 h after transfection for 48 h. Measured: 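Medium lactate read by absorbance over DAPI-counted nuclei; ratio with versus without vemurafenib, set against non-targeting siRNA, averaged over 2 replicates; cell number also recorded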. Reading the numbers: lactate per cell, drug vs no drug: higher = less drug-induced drop in lactate per cell; lactate per cell with vemurafenib: higher = more lactate per cell under drug; lactate per cell without drug: higher = more lactate per cell without drug; cell growth with vemurafenib: higher = more cell growth over 48 h. Hit rule: 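a duplex is active when its lactate-per-cell ratio with versus without drug falls under 0.55, i.e. 2 SD below non-targeting; a gene is confirmed if 2 or more of 4 duplexes pass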.
In all, the deposit lists about 1,600 reagents; this is a random part of them. Over the whole deposit, 623 (39%) were called active. 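Calls are for each duplex; lactate ratios contain extreme outliers.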 Entries without a mark were called inactive. The numbers tell different reagents against one gene apart. Further read-outs or replicates are left out here. Reagent sequences are not shown.

| target | reagent no. | lactate per cell, drug vs no drug | lactate per cell with vemurafenib | lactate per cell without drug | cell growth with vemurafenib |
| --- | --- | --- | --- | --- | --- |
| STAB2 (stabilin 2) | 1 | 0.7 | 1.69 | 1.56 | 0.49 |
| STAB2 (stabilin 2) | 2 | 0.61 | 0.98 | 1.06 | 0.38 |
| STAB2 (stabilin 2) | 3 | 0.44 (active) | 0.88 | 1.32 | 0.37 |
| STAB2 (stabilin 2) | 4 | 1.29 | 4.29 | 2.21 | -0.04 |
| LRFN2 | 1 | 0.49 (active) | 1.58 | 2.22 | 0.3 |
| LRFN2 | 2 | 1.03 | 5.05 | 3.47 | -0.11 |
| LRFN2 | 3 | 0.38 (active) | 0.32 | 0.58 | 0.31 |
| LRFN2 | 4 | 0.84 | 1.36 | 1.11 | 0.4 |
| AIF1L (allograft inflammatory factor 1 like) | 1 | 0.79 | 2.71 | 2.37 | -0.01 |
| AIF1L (allograft inflammatory factor 1 like) | 2 | 0.65 | 3.62 | 3.76 | 0.13 |
| AIF1L (allograft inflammatory factor 1 like) | 3 | 0.52 (active) | 1.27 | 1.68 | 0.23 |
| AIF1L (allograft inflammatory factor 1 like) | 4 | 0.64 | 0.96 | 1.03 | 0.83 |
| PPIL3 (peptidylprolyl isomerase like 3) | 1 | 0.81 | 1.69 | 1.38 | 0.46 |
| PPIL3 (peptidylprolyl isomerase like 3) | 2 | 0.76 | 2.96 | 2.55 | 0.23 |
| PPIL3 (peptidylprolyl isomerase like 3) | 3 | 0.86 | 2.92 | 2.2 | 0.21 |
| PPIL3 (peptidylprolyl isomerase like 3) | 4 | 0.53 (active) | 0.76 | 0.94 | 1 |
| DPYSL2 (dihydropyrimidinase like 2) | 1 | 1.12 | 3.46 | 2.04 | -0.09 |
| DPYSL2 (dihydropyrimidinase like 2) | 2 | 0.11 (active) | 0.11 | 0.68 | 0.21 |
| DPYSL2 (dihydropyrimidinase like 2) | 3 | 0.52 (active) | 0.63 | 0.79 | 0.47 |
| DPYSL2 (dihydropyrimidinase like 2) | 4 | 0.59 | 1.26 | 1.38 | 0.51 |
| ATP2C1 (ATPase secretory pathway Ca2+ transporting 1) | 1 | 0.4 (active) | 0.86 | 1.25 | 0.43 |
| ATP2C1 (ATPase secretory pathway Ca2+ transporting 1) | 2 | 0.45 (active) | 0.58 | 0.78 | 0.09 |
| ATP2C1 (ATPase secretory pathway Ca2+ transporting 1) | 3 | 0.53 (active) | 0.94 | 1.06 | 0.48 |
| ATP2C1 (ATPase secretory pathway Ca2+ transporting 1) | 4 | 0.87 | 2.16 | 1.46 | 0.16 |
| CPLANE1 (ciliogenesis and planar polarity effector complex subunit 1) | 1 | 0.7 | 1.5 | 1.52 | 0.08 |
| CPLANE1 (ciliogenesis and planar polarity effector complex subunit 1) | 2 | 0.46 (active) | 1.09 | 1.69 | 0.26 |
| CPLANE1 (ciliogenesis and planar polarity effector complex subunit 1) | 3 | 0.67 | 1.33 | 1.43 | 0.73 |
| CPLANE1 (ciliogenesis and planar polarity effector complex subunit 1) | 4 | 0.68 | 1.18 | 1.22 | 0.25 |
| GOLM2 (golgi membrane protein 2) | 1 | 0.5 (active) | 2.04 | 3 | 0.02 |
| GOLM2 (golgi membrane protein 2) | 2 | 0.52 (active) | 1.04 | 1.46 | 0.34 |
| GOLM2 (golgi membrane protein 2) | 3 | 0.54 (active) | 0.68 | 0.87 | 0.53 |
| GOLM2 (golgi membrane protein 2) | 4 | 0.62 | 1.28 | 1.41 | 0.8 |
| SERINC5 (serine incorporator 5) | 1 | 0.35 (active) | 1.21 | 2.44 | 0.12 |
| SERINC5 (serine incorporator 5) | 2 | 0.52 (active) | 0.94 | 1.24 | 0.73 |
| SERINC5 (serine incorporator 5) | 3 | 0.54 (active) | 0.58 | 0.74 | 0.77 |
| SERINC5 (serine incorporator 5) | 4 | 0.7 | 1.94 | 2.1 | 0.2 |
| MIDN (midnolin) | 1 | 0.7 | 1.13 | 1.06 | 0.41 |
| MIDN (midnolin) | 2 | 0.56 | 1.65 | 1.96 | -0.01 |
| MIDN (midnolin) | 3 | 0.66 | 1 | 0.98 | 0.81 |
| MIDN (midnolin) | 4 | 0.78 | 1.26 | 1.06 | 0.83 |
| CACNB1 (calcium voltage-gated channel auxiliary subunit beta 1) | 1 | 0.57 | 3.54 | 3.71 | -0.07 |
| CACNB1 (calcium voltage-gated channel auxiliary subunit beta 1) | 2 | 0.23 (active) | 0.5 | 1.26 | 0.15 |
| CACNB1 (calcium voltage-gated channel auxiliary subunit beta 1) | 3 | 0.68 | 1.56 | 1.34 | 0.33 |
| CACNB1 (calcium voltage-gated channel auxiliary subunit beta 1) | 4 | 0.72 | 2.02 | 1.69 | 0.18 |
| RTTN (rotatin) | 1 | 0.57 | 0.66 | 0.78 | 0.38 |
| RTTN (rotatin) | 2 | 0.74 | 1.48 | 1.42 | 0.49 |
| RTTN (rotatin) | 3 | 0.65 | 1.03 | 1.08 | 0.46 |
| RTTN (rotatin) | 4 | 1.18 | 4.53 | 2.64 | -0.04 |
| PUS10 (pseudouridine synthase 10) | 1 | 0.55 | 1.4 | 1.7 | 0.55 |
| PUS10 (pseudouridine synthase 10) | 2 | 0.6 | 1.05 | 1.18 | 0.88 |
| PUS10 (pseudouridine synthase 10) | 3 | 0.62 | 1.26 | 1.42 | 0.21 |
| PUS10 (pseudouridine synthase 10) | 4 | 0.58 | 0.99 | 1.17 | 0.63 |

In a second layout: results already given
target,reagent no.,"lactate per cell, drug vs no drug",lactate per cell with vemurafenib,lactate per cell without drug,cell growth with vemurafenib
PPIL3 (peptidylprolyl isomerase like 3),1,0.81,1.69,1.38,0.46
PPIL3 (peptidylprolyl isomerase like 3),2,0.76,2.96,2.55,0.23
